Among the data in publication PMC6656774, “Functional importance of the oligomer formation of the cyanobacterial H^+ pump Gloeobacter rhodopsin” (Scientific Reports, 2019) are binding values, retold here.

Test [1] addresses Gloeobacter rhodopsin (GR), wild type, C-terminal His-tagged (Gloeobacter violaceus) (UniProt Q7NP59). Put plainly: condition: only in the lower-density nanodisc band NDL; visible circular dichroism (exciton coupling of retinals); GR in the lower-density nanodisc band NDL (MSP1E3D1, POPC); 6-mix buffer, pH 7, 0.3 M NaCl, 25 °C; both purified.
Test [2] shares this target. In words: visible circular dichroism (exciton coupling of retinals); DDM-solubilized GR at pH 4; both purified.
The target is the same in test [3]. In words: condition: only in the lower-density nanodisc band NDL; sucrose density gradient centrifugation + absorption spectra (MSP amount per GR from A280); lower-density nanodisc band NDL, reconstituted at pH 5.5, separated on a 10-40% sucrose gradient; spectra in 6-mix buffer, pH 7, 0.3 M NaCl, set to the same peak at about 540 nm; both purified.
Test [4] has as its target Gloeobacter rhodopsin H87M mutant, C-terminal His-tagged (Gloeobacter violaceus) (UniProt Q7NP59). In words: sucrose density gradient centrifugation; H87M GR in MSP1E3D1/POPC nanodiscs reconstituted at pH 7 (GR:MSP:POPC 1:2:200); 10-40% sucrose, 40,000 rpm, 16 h, 4 °C; band position compared with NDL; both purified.

No constants are given. Whether binding was seen depends on the method and setting. Tags and fused reporters may be left off the sequences shown.

B1: Gloeobacter rhodopsin (GR), wild type, C-terminal His-tagged (natural protein, Gloeobacter violaceus, UniProt Q7NP59 1-298, looked up)
chain: MLMTVFSSAPELALLGSTFAQVDPSNLSVSDSLTYGQFNLVYNAFSFAIAAMFASALFFFSAQALVGQRYRLALLVSAIVVSIAGYHYFRIFNSWDAAYVLENGVYSLTSEKFNDAYRYVDWLLTVPLLLVETVAVLTLPAKEARPLLIKLTVASVLMIATGYPGEISDDITTRIIWGTVSTIPFAYILYVLWVELSRSLVRQPAAVQTLVRNMRWLLLLSWGVYPIAYLLPMLGVSGTSAAVGVQVGYTIADVLAKPVFGLLVFAIALVKTKADQESSEPHAAIGAAANKSGGSLIS
modifications: retinal bound by a protonated Schiff base linkage (residue not given)
notes: Gloeobacter rhodopsin, H+ pump from the cyanobacterium Gloeobacter violaceus; The same protein was trapped as a trimer (nanodisc band NDH) and as a monomer (nanodisc band NDL) after reconstitution at pH 5.5; also called wild-type GR; trimeric GR (in NDH); source: E. coli BL21(DE3), solubilized with DDM, purified (Ni-NTA agarose); reconstituted into MSP1E3D1/POPC nanodiscs or kept in DDM
On to B1, for which the binding result in test [1] is listed as “no binding”; in test [2] it was “no binding (condition: DDM-solubilized at pH 4)”; in test [3], “no binding”.

B2: Gloeobacter rhodopsin H87M mutant, C-terminal His-tagged (protein, UniProt Q7NP59 1-298)
chain: MLMTVFSSAPELALLGSTFAQVDPSNLSVSDSLTYGQFNLVYNAFSFAIAAMFASALFFFSAQALVGQRYRLALLVSAIVVSIAGYMYFRIFNSWDAAYVLENGVYSLTSEKFNDAYRYVDWLLTVPLLLVETVAVLTLPAKEARPLLIKLTVASVLMIATGYPGEISDDITTRIIWGTVSTIPFAYILYVLWVELSRSLVRQPAAVQTLVRNMRWLLLLSWGVYPIAYLLPMLGVSGTSAAVGVQVGYTIADVLAKPVFGLLVFAIALVKTKADQESSEPHAAIGAAANKSGGSLIS
modifications: retinal bound by a Schiff base linkage (residue not given)
With B2, the binding entry in test [4] is listed as “no binding”.
